From PMC7670456
These are yes or no findings as the source states them, for the method shown. In cells and extracts the contact can be indirect. Some results given as binding are weak or reduced against the parent protein; the word gives no strength.

Amino acid sequences for entries named in this document (tags omitted). A change or cut given only in a name is not applied to a line headed by its entry.
UniProt Q13485: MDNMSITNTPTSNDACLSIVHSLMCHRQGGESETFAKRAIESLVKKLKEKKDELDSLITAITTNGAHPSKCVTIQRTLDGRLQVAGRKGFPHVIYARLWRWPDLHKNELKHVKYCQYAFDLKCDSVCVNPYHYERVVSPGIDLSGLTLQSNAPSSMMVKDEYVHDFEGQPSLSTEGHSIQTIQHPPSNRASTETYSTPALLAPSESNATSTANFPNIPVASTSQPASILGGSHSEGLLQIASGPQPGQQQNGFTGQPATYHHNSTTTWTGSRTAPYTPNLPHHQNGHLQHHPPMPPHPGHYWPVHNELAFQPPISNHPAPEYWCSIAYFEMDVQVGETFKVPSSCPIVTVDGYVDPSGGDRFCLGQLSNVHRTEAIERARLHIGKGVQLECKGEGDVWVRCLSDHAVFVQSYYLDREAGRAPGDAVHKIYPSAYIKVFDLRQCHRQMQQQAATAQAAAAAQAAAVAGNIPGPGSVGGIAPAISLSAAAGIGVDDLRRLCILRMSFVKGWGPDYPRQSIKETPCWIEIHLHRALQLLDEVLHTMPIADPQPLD
UniProt P49841: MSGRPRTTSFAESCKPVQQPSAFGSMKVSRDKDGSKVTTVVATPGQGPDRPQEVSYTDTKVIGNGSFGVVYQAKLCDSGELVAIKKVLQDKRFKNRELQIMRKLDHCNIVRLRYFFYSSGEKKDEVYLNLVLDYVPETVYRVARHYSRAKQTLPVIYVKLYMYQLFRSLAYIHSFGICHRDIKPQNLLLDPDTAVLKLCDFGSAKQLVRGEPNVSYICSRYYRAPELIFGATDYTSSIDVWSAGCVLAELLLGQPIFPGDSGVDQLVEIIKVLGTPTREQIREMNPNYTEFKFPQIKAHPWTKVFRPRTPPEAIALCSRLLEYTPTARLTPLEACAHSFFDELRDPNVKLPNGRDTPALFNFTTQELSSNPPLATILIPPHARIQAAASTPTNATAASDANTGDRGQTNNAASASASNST
UniProt Q9Y297: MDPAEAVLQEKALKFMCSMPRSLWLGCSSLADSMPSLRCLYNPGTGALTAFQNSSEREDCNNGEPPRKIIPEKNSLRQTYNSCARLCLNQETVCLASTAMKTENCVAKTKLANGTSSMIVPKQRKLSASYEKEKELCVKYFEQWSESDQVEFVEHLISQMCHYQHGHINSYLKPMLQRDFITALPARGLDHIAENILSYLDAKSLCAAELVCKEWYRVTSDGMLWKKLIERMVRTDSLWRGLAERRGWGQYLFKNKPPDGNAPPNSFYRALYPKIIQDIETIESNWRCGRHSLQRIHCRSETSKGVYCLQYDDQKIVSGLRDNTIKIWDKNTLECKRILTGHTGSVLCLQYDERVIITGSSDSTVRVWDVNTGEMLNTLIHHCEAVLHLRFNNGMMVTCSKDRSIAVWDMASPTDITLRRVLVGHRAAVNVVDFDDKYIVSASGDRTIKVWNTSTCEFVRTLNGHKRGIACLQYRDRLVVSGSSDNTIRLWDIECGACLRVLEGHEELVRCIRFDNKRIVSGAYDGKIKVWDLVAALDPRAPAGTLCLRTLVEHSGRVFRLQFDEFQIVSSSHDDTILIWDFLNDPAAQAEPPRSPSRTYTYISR

Assays:
FLAG-SMAD4 T63V [1] = biological target: FLAG-SMAD4 T63V (UniProt Q13485); assay: co-IP; HEK293 cells expressing FLAG-SMAD4 T63V and myc-β-TrCP, 24 h after transfection; precipitates blotted with anti-myc
FLAG-SMAD4 WT [2] = biological target: FLAG-SMAD4 WT (UniProt Q13485); assay: co-IP; HEK293 cells co-transfected with FLAG-SMAD4 and pCMV-OGT 24 h (OGT overexpressed); immunoprecipitation with anti-FLAG, endogenous GSK-3β detected with anti-GSK-3β
FLAG-SMAD4 WT [3] = biological target: FLAG-SMAD4 WT (UniProt Q13485); assay: co-IP; HEK293 cells transfected with FLAG-SMAD4 24 h; immunoprecipitation with anti-FLAG, endogenous GSK-3β detected with anti-GSK-3β; without OGT overexpression
FLAG-SMAD4 T63V [4] = biological target: FLAG-SMAD4 T63V (UniProt Q13485); assay: co-IP; HEK293 cells co-transfected 24 h; whole lysates (NET buffer: 150 mM NaCl, 50 mM Tris, 1 mM EDTA, 1% Nonidet P-40, pH 7.4) immunoprecipitated with anti-FLAG overnight at 4 °C, blotted with anti-HA; with or without pCMV-OGT or myc-His-OGA overexpression
FLAG-SMAD4 WT [5] = biological target: FLAG-SMAD4 WT (UniProt Q13485); assay: as above
HA-GSK-3β = HA-GSK-3β (UniProt P49841); assay: co-IP; HEK293 cells co-transfected 24 h; whole lysates immunoprecipitated with anti-HA, FLAG-SMAD4 detected in the precipitates; with or without pCMV-OGT overexpression
[6] = biological target: endogenous GSK-3β (A549) (human (endogenous in A549)) (UniProt P49841); assay: co-IP; A549 cells, siRNA against OGT 48 h, 20 µM MG132 6 h before harvest; immunoprecipitation with anti-GSK-3β, endogenous SMAD4 detected with anti-SMAD4

With myc-β-TrCP (from UniProt Q9Y297 1-605) the binding (FLAG-SMAD4 T63V [1]) was “binds”.

In the case of “endogenous GSK-3β (HEK293) (from UniProt P49841 1-420) (enzyme)”, the binding (FLAG-SMAD4 WT [2]) is reported as “binds weakly” and the binding (FLAG-SMAD4 WT [3]) is reported as “binds”.

With “HA-GSK-3β (from UniProt P49841 1-420) (enzyme)” the binding (FLAG-SMAD4 T63V [4]) was “binds” and the binding (FLAG-SMAD4 WT [5]) was “binds”.

With “FLAG-SMAD4 WT (from UniProt Q13485 1-552)” the binding (HA-GSK-3β) was “binds”.

With “endogenous SMAD4 (A549) (from UniProt Q13485 1-552)” the binding [6] was “binds”.
